Results from the supplement of paper PMC6078165.

Test system: HCC1143
Assay: relative JC-1 red fluorescence (viability) vs pre-drug, coculture with fibroblast (fraction); higher = more viable cancer cells
Procedure: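 JC-1 labelled TNBC cells cocultured 1:1 (1,500 cells each) with CellTrace Violet stained primary or stromal fibroblasts in 384-well plates in FluoroBrite medium, treated with one of 42 anticancer drugs at 0.1, 1, 10 or 100 uM. JC-1 red fluorescence (mitochondrial integrity in cancer cells only) was read by plate reader every 8 h for 72 h. Values are normalised to each well's pre-drug value. The stock of one drug was tenfold lower, so its dose labels may be too high.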

CC(=O)O[C@@]12CO[C@@H]1C[C@H](O)[C@@]1(C)C(=O)[C@H](O)C3=C(C)[C@@H](OC(=O)[C@H](O)[C@@H](NC(=O)OC(C)(C)C)c4ccccc4)C[C@@](O)([C@@H](OC(=O)c4ccccc4)[C@H]21)C3(C)C [Docetaxel]
relative JC-1 red fluorescence
Settings	8 h	16 h	24 h	32 h	40 h	48 h	56 h	64 h	72 h
10 µM, coculture fibroblast: C12385	0.852	0.759	0.668	0.572	0.502	0.4663	0.4332	0.406	0.401
10 µM, coculture fibroblast: H6013	0.798	0.732	0.686	0.656	0.589	0.593	0.576	0.57	0.5176
10 µM, coculture fibroblast: H6019	0.8559	0.769	0.707	0.65	0.624	0.629	0.597	0.575	0.558
10 µM, coculture fibroblast: H6076	0.812	0.816	0.761	0.712	0.649	0.633	0.612	0.589	0.622
10 µM, coculture fibroblast: H6231	0.83	0.825	0.701	0.616	0.546	0.501	0.46	0.423	0.413
10 µM, coculture fibroblast: HADF	0.7533	0.6928	0.648	0.623	0.527	0.508	0.472	0.454	0.402
10 µM, coculture fibroblast: HCFa	0.815	0.74	0.67	0.618	0.524	0.496	0.434	0.417	0.373
10 µM, coculture fibroblast: HCPF	0.8457	0.857	0.814	0.73671	0.727	0.683	0.645	0.609	0.604
10 µM, coculture fibroblast: HHSteC	0.844	0.79	0.746	0.704	0.645	0.634	0.584	0.56	0.496
10 µM, coculture fibroblast: HMF	0.8099	0.792	0.7258	0.7016	0.634	0.606	0.557	0.54	0.533
10 µM, coculture fibroblast: HPFa	0.894	0.787	0.71	0.591	0.531	0.503	0.463	0.45	0.435
10 µM, coculture fibroblast: HUF	0.88	0.768	0.681	0.568	0.489	0.463	0.426	0.4	0.391
10 µM, coculture fibroblast: Hs5	0.8635	0.8521	0.8047	0.7814	0.6694	0.633	0.604	0.5813	0.6118
10 µM, coculture fibroblast: Hs27A	0.6953	0.629	0.557	0.55	0.438	0.439	0.409	0.396	0.338
10 µM, coculture fibroblast: Hs343T	0.822	0.876	0.798	0.675	0.627	0.576	0.51	0.472	0.428
10 µM, coculture fibroblast: WS1	0.84	0.732	0.642	0.529	0.465	0.443	0.412	0.396	0.386
100 µM, coculture fibroblast: C12385	0.88	0.811	0.68	0.573	0.482	0.43	0.378	0.342	0.321
100 µM, coculture fibroblast: H6013	0.803	0.728	0.678	0.652	0.612	0.626	0.621	0.618	0.579
100 µM, coculture fibroblast: H6019	0.848	0.757	0.69	0.61	0.556	0.538	0.506	0.483	0.452
100 µM, coculture fibroblast: H6076	0.8065	0.853	0.759	0.656	0.612	0.575	0.546	0.519	0.527
100 µM, coculture fibroblast: H6231	0.816	0.869	0.7511	0.578	0.595	0.5313	0.466	0.42	0.402
100 µM, coculture fibroblast: HADF	0.759	0.678	0.619	0.593	0.495	0.47	0.4398	0.4205	0.39
100 µM, coculture fibroblast: HCFa	0.7768	0.667	0.603	0.551	0.4617	0.4318	0.396	0.384	0.361
100 µM, coculture fibroblast: HCPF	0.8406	0.89	0.78	0.64797	0.642	0.574	0.514	0.4726	0.448
100 µM, coculture fibroblast: HHSteC	0.833	0.756	0.726	0.683	0.605	0.577	0.532	0.506	0.452
100 µM, coculture fibroblast: HMF	0.832	0.846	0.746	0.6177	0.575	0.526	0.473	0.4427	0.4189
100 µM, coculture fibroblast: HPFa	0.951	0.901	0.832	0.709	0.627	0.597	0.55	0.531	0.518
100 µM, coculture fibroblast: HUF	0.92	0.80255	0.661	0.53	0.451	0.412	0.357	0.326	0.31
100 µM, coculture fibroblast: Hs5	0.857	0.866	0.791	0.7165	0.614	0.559	0.521	0.493	0.497
100 µM, coculture fibroblast: Hs27A	0.771	0.697	0.63	0.626	0.502	0.487	0.453	0.441	0.409
100 µM, coculture fibroblast: Hs343T	0.817	0.879	0.786	0.643	0.616	0.532	0.475	0.435	0.408
100 µM, coculture fibroblast: WS1	0.865	0.7391	0.62	0.512	0.4407	0.3939	0.356	0.317	0.297

The reference is the same well before dosing, and untreated signal decays as well.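 Labels refer to human fibroblasts, largely primary: uterine (C12385, HUF), lung (H6013), bone (Hs27A), adrenal (HADF), skin (WS1), plus mammary HMF and breast cancer-associated Hs343T. Cancer lines are basal-like or mesenchymal-like triple-negative breast cancer. The paper counts as hits responses shifting over 3x the replicate standard deviation. The tissue of the other fibroblasts is not given here.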
